In article PMC10242005:
No constants are given. Whether binding was seen depends on the method and setting. For some assays here: In cells and extracts the contact can be indirect. Some results given as binding are weak or reduced against the parent protein; the word gives no strength.

Protein sequences, listed by entry. Tags and fused reporters are not part of them.
UniProt Q16659: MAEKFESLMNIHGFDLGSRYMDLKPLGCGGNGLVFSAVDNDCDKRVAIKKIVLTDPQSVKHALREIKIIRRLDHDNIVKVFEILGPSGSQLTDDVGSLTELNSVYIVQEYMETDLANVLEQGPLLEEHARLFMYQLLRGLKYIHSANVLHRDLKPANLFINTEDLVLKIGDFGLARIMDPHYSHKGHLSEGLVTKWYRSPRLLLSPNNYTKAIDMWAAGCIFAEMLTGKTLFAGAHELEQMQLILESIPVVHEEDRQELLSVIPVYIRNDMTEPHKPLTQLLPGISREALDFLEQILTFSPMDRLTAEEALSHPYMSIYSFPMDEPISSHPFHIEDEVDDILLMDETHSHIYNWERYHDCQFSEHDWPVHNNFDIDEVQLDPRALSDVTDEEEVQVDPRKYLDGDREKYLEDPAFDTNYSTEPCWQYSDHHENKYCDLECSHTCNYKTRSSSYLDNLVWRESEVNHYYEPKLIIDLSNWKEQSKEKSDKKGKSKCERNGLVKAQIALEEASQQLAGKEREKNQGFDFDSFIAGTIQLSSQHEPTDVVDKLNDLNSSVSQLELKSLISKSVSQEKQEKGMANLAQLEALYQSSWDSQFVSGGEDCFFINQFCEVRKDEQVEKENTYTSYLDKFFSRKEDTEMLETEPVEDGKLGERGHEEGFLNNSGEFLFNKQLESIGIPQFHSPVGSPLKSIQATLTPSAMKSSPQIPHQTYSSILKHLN
UniProt Q13574: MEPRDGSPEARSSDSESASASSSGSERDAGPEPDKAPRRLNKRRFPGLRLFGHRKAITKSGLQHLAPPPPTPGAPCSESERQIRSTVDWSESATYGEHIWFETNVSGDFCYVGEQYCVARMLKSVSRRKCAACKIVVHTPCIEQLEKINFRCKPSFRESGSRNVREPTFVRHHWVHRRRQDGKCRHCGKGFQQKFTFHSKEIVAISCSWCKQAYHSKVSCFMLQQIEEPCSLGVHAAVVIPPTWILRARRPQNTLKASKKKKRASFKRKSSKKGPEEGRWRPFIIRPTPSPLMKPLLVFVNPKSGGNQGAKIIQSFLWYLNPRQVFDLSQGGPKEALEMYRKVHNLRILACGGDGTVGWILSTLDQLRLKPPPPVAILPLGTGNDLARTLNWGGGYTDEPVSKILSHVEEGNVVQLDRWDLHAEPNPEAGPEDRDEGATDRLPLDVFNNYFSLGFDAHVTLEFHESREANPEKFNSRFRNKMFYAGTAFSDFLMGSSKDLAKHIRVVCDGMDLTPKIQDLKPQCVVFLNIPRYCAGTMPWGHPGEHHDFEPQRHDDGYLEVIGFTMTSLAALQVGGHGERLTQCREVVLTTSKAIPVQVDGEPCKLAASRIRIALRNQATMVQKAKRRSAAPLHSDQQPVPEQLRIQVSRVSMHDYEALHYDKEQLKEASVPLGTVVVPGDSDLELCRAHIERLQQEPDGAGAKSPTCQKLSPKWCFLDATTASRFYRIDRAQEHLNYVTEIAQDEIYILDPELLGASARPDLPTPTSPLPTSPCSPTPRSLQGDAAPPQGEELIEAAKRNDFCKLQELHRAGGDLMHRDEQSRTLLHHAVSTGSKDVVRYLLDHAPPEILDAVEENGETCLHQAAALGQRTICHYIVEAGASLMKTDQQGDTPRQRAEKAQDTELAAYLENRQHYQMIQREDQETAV

Legend:
[1] = molecular target: His6-ERK3-GST (WT, full length) (UniProt Q16659); assay: co-IP; in vitro binding assay: 150 ng purified DGKζ with or without 200 ng purified ERK3 in EBC buffer, 1 h at 4°C, then ERK3 antibody on protein A beads; blot; both purified
[2] = molecular target: endogenous ERK3 (NCI-H460 cells) (human (endogenous in NCI-H460)) (UniProt Q16659); assay: co-IP; endogenous proteins in NCI-H460 lysate; ERK3 precipitated with anti-ERK3 antibody, rabbit IgG control; blot for DGKζ

binding [1] | binding [2] | Substance
binds | – | GST-DGKζ (purchased) (from UniProt Q13574 1-928)
– | binds | endogenous DGKζ (NCI-H460 cells) (from UniProt Q13574 1-928)
